Out of some 320,000 compounds screened, about 2,100 (0.66%) were called active. Inconclusive results, whose numbers are uncertain, are shown with a selection of clear calls. The call rests on the fitted dose curve; in most records, active means well fitted inhibition curve with a large enough effect in the signal ratio, with a control signal flat (not every such curve was filed as active); inconclusive means small, poorly fitted or top-dose-only effect, or effect the other way, or a change in a side signal; inactive means flat fitted curve, though single readings scatter; the % refers to the signal ratio. Potencies of inconclusive entries are doubtful fits and often do not repeat.
test: qHTS Assay for Lipid Storage Modulators in Drosophila S3 Cells; conditions: BODIPY lipid droplet fluorescence, 18-24 h, cells fed with added oleic acid; lipid storage change, negative = inhibition: at 46.1 µM (top of the series) unless noted
In short: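 Drosophila S3 cells got compounds at several concentrations plus oleic acid (400 uM solution). Laser-scanning cytometry with 488 nm excitation read lipid droplets at 500-530 nm and cells at 575-640 nm. Percent activity was relative to 20 uM Triacsin C.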
On the % scale 0 is the no-effect control and ±100 the full control effect; potency means the concentration at half of the fitted maximal effect.

Structure (SMILES) | lipid storage change, negative = inhibition | Potency | outcome
CC(=O)N1C(=O)C(=C2C=C(C)OC(C)=C2)c2ccccc21 | inconclusive: -12.4% |  | 
CCC(C)N(C(=O)c1csnn1)C(C(=O)NC1CCCC1)c1ccc(F)cc1 (stereo unspecified) | inconclusive: -129% |  | 
O=C(CCCn1cncn1)N1CCCC(N2CCN(c3ccccc3F)CC2)C1 (stereo unspecified) |  | inconclusive: 6.51 µM [activator, single point] | 
CC(Sc1nc2cc([N+](=O)[O-])ccc2n1-c1ccc(F)cc1)C(=O)NCc1ccc2c(c1)OCO2 (stereo unspecified) |  | inconclusive: 7.31 µM [activator, partial curve] | 
Cc1c(C(=O)O)cccc1-c1ccc(/C=N/Nc2ccc(Br)cc2)o1 | inconclusive: 6.44% |  | 
O=C(Nc1cccc(Cl)c1)Nc1ccon1 |  |  | inactive [at 46.1 µM]
CCN(C(=O)c1ccco1)c1nnc(-c2cccnc2)s1 |  | inconclusive: 0.164 µM [falling, full curve, poor fit] | 
CCOc1ccc(C(=O)NCC(=O)NCC(c2ccco2)N2CCCCC2)cc1 (stereo unspecified) | inconclusive: -23.8% |  | 
CC(C)NCC(O)COc1c(F)cc(Br)cc1F (stereo unspecified) | inconclusive: -26.3% |  | 
Cc1oc2c(c(C)cc3oc(=O)c(CC(=O)N[C@@H](CCCNC(N)=O)C(=O)O)c(C)c32)c1C | inconclusive: 14% |  | 
C=CCn1c(=O)c2c(nc3n2CC(C)CN3c2cccc(OC)c2)n(C)c1=O (stereo unspecified) |  | inconclusive: 25.9 µM [falling, partial curve, poor fit] | 
O=C(NCc1ccccc1)c1cccc(OCC(=O)N2CCN(C(=O)c3ccco3)CC2)c1 | inconclusive: 31.1% |  | 
COC(=O)CSc1nc2ccccc2n1CC(=O)N(C(C)C)C(C)C | inconclusive: -16.2% |  | 
CN(CC(=O)Nc1cccnc1Cl)S(=O)(=O)c1ccc(Cl)cc1 |  | inconclusive: 18.4 µM [activator, single point] | 
CCN1CCN(C(=O)CSCc2nc(-c3ccc(OC)c(OC)c3)oc2C)CC1 | inconclusive: 43.1% |  | 
COc1cc(NC(=O)COc2ccccc2[N+](=O)[O-])ccc1NC(=O)c1cccs1 | inconclusive: -94.5% |  | 
O=C1C2CCCCN2C(=O)N1CCN1CCN(c2ccc([N+](=O)[O-])cc2)CC1 (stereo unspecified) | inconclusive: 35.7% |  | 
Cc1ccc(NC(=O)CSc2nc(N)c3cc4c(nc3n2)CCCC4)cc1 |  | inconclusive: 29.1 µM [falling, single point] | 
Cc1ccc(C)c(C(C)NC(=O)Cc2cccs2)c1 (stereo unspecified) |  | inconclusive: 14.6 µM [falling, single point] | 
Cc1ccc(CCNS(=O)(=O)c2cc(Br)cnc2N)cc1 | inconclusive: -37.1% |  | 
CCOC(=O)c1ccccc1NC(=O)CSc1ncc(C(=O)OCC)c(N)n1 |  | inconclusive: 0.164 µM [activator, full curve, poor fit] | 

Reformatted in CSV form: part of the list above.
Structure (SMILES),"lipid storage change, negative = inhibition",Potency,outcome
CN(CC(=O)Nc1cccnc1Cl)S(=O)(=O)c1ccc(Cl)cc1,,"inconclusive: 18.4 µM [activator, single point]",
Cc1ccc(CCNS(=O)(=O)c2cc(Br)cnc2N)cc1,inconclusive: -37.1%,,
